Measurements reported in PubChem BioAssay AID504784 (Drosophila RNAi Screening Center, 2011).
The screen tested about 17,000 reagents; shown is a random part of those that have a named target and a result. 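Each column is one replicate's B-score; the combined score over replicates was not deposited, so single values may mislead.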 Names joined by + are all predicted targets of the reagent. Further read-outs or replicates are left out here. No sequences are given here.

- Aim: 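Genome-wide knock-down for genes giving too much or too little stored lipid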 (primary screen)
- Cells: Drosophila Kc167 embryonic cells
- Knock-down reagent: long dsRNA against Drosophila genes, about 250 ng dsRNA per well
- Time to read-out: 4 days
- Conditions: cells fed 400 µM oleic acid bound to BSA
- Measurement: 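Cells imaged and segmented; ratio of lipid droplet area to nuclear area, log-transformed, then normalised as a B-score over the screen; higher means more stored lipid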
- Scale: droplet/nuclear area B-score: higher = more stored lipid (overstorage)

The first 12 records as a preview:
| droplet/nuclear area B-score, replicate 1 | droplet/nuclear area B-score, replicate 2 | gene | DRSC id |
| --- | --- | --- | --- |
| -2.18 | -0.135 | su(sable) (suppressor of sable) | DRSC18839 |
| 0.16 | 0.181 | CG6683 | DRSC10694 |
| -0.00119 | 2.22 | Ddx56 (DEAD-box helicase 56) | DRSC20567 |
| 2.16 | 1.13 | CG3164 | DRSC00572 |
| -0.65 | 3.4 | Cda9 (Chitin deacetylase-like 9) | DRSC06593 |
| -0.196 | 0.658 | salt (salty dog) | DRSC15427 |
| 0.357 | 2.84 | CG42306 + Gint3 | DRSC06934 |
| -1.92 | -0.182 | SNRPG (Small nuclear ribonucleoprotein G) | DRSC20207 |
| 0.847 | -0.464 | Mpi (Mannose phosphate isomerase) | DRSC16417 |
| -0.00562 | -0.126 | CG15734 | DRSC19701 |
| 0.257 | -0.0113 | CG33177 | DRSC19949 |
| -0.572 | -1.68 | drn (doctor no) | DRSC15147 |

The list itself, repeating the preview:
| droplet/nuclear area B-score, replicate 1 | droplet/nuclear area B-score, replicate 2 | gene | DRSC id |
| --- | --- | --- | --- |
| -2.18 | -0.135 | su(sable) (suppressor of sable) | DRSC18839 |
| 0.16 | 0.181 | CG6683 | DRSC10694 |
| -0.00119 | 2.22 | Ddx56 (DEAD-box helicase 56) | DRSC20567 |
| 2.16 | 1.13 | CG3164 | DRSC00572 |
| -0.65 | 3.4 | Cda9 (Chitin deacetylase-like 9) | DRSC06593 |
| -0.196 | 0.658 | salt (salty dog) | DRSC15427 |
| 0.357 | 2.84 | CG42306 + Gint3 | DRSC06934 |
| -1.92 | -0.182 | SNRPG (Small nuclear ribonucleoprotein G) | DRSC20207 |
| 0.847 | -0.464 | Mpi (Mannose phosphate isomerase) | DRSC16417 |
| -0.00562 | -0.126 | CG15734 | DRSC19701 |
| 0.257 | -0.0113 | CG33177 | DRSC19949 |
| -0.572 | -1.68 | drn (doctor no) | DRSC15147 |
| 0.00805 | 0.866 | Ekar (Eye-enriched kainate receptor) | DRSC17161 |
| 0.259 | 4.63 | CG31445 | DRSC14443 |
| 0.334 | -0.38 | CG5493 + CG5327 | DRSC06938 |
| -0.076 | -1.25 | Eip63F-1 (Ecdysone-induced protein 63F 1) | DRSC08659 |
| 1.96 | -0.0298 | POLDIP2 (Polymerase (DNA-directed), delta interacting protein 2) | DRSC12194 |
| 1.25 | -1.03 | CG15118 | DRSC06540 |
| -3.61 | -0.92 | pyd3 | DRSC15459 |
| 0.676 | 2.15 | pyd3 | DRSC21640 |
| -0.447 | 1.29 | CG32512 | DRSC20519 |
| -3.28 | 0.256 | CG32512 | DRSC20551 |
| -0.308 | -1.41 | CG32512 | DRSC21401 |
| 0.0985 | -0.753 | CG3690 | DRSC18170 |
| 0.244 | -1.07 | CG3690 | DRSC18641 |
| 0.0961 | -1.51 | CG13868 | DRSC06427 |
| -0.462 | -0.706 | Rca1 (Regulator of cyclin A1) | DRSC03407 |
| -0.378 | -0.667 | ChAT (Choline acetyltransferase) | DRSC16609 |
| -0.158 | 0.346 | ChAT (Choline acetyltransferase) | DRSC22755 |
| -1.42 | -1.63 | Scamp | DRSC20286 |
| -0.297 | 0.47 | Dhc64C (Dynein heavy chain 64C) | DRSC08656 |
| -0.523 | -0.333 | tud (tudor) | DRSC04719 |
| 0.598 | 1.87 | beat-VI (beaten path VI) | DRSC14474 |
| 0.273 | -0.0486 | beat-VI (beaten path VI) | DRSC14727 |
| 0.328 | 0.287 | gem (gemini) | DRSC06093 |
| 0.402 | 1.88 | gem (gemini) | DRSC06847 |
| 2.1 | -0.93 | Gr89a (Gustatory receptor 89a) | DRSC15023 |
| -0.236 | -0.132 | CG32189 | DRSC09511 |
| -0.0822 | -0.302 | NKAIN (Na,K-ATPase Interacting) | DRSC04531 |
| -1.82 | 0.198 | NKAIN (Na,K-ATPase Interacting) | DRSC22470 |
| 0.295 | -1.64 | Epp (Ecdysteroid phosphate phosphatase) | DRSC14607 |
| -0.58 | -0.773 | CG6136 | DRSC15975 |
| 1.89 | 4.81 | CG12278 | DRSC14494 |
| -0.0712 | 0.471 | mbf1 (multiprotein bridging factor 1) | DRSC11365 |
| 1.88 | -0.583 | CG7231 | DRSC03034 |
| 0.0881 | 1.12 | Clamp (Chromatin-linked adaptor for MSL proteins) | DRSC03718 |
| -1.48 | 3.79 | Clamp (Chromatin-linked adaptor for MSL proteins) | DRSC21682 |
| -1.71 | -0.873 | Vta1 (Vesicle trafficking 1) | DRSC08604 |
| 1.41 | -4.08 | Vta1 (Vesicle trafficking 1) | DRSC22848 |
| -1.52 | 0.0714 | CG32808 | DRSC17689 |
| 1.17 | 0.101 | Stoml2 (Stomatin like 2) | DRSC04326 |
| -1.01 | -0.0297 | CG14636 | DRSC12223 |
| -1.82 | -0.561 | RfC4 (Replication factor C subunit 4) | DRSC08691 |
| 0.771 | -0.374 | CG31949 | DRSC00110 |
| 0.64 | 1.48 | lncRNA:CR32368 (long non-coding RNA:CR32368) | DRSC08899 |
| 1.03 | -0.0208 | FASN2 (Fatty acid synthase 2) | DRSC00167 |
| -0.00924 | 0.201 | FASN2 (Fatty acid synthase 2) | DRSC00610 |
| -1.8 | -1.11 | Ir93a (Ionotropic receptor 93a) | DRSC15212 |
| -0.399 | -0.726 | Ir93a (Ionotropic receptor 93a) | DRSC15213 |
| -0.72 | 0.254 | TwdlY (TweedleY) | DRSC19153 |
| 0.857 | 1.3 | Vps51 (Vacuolar protein sorting 51) | DRSC06519 |
| 0.781 | -0.01 | Sply (Sphingosine-1-phosphate lyase) | DRSC07299 |
| -0.71 | -1.36 | tyf (twenty-four) | DRSC18382 |
| 0.8 | -1.78 | yellow-g | DRSC08575 |
| 0.972 | -0.473 | Sgf29 (SAGA-associated factor 29kDa) | DRSC04076 |
| -0.108 | -0.463 | Osi17 (Osiris 17) | DRSC12284 |
| -0.488 | -0.942 | Oda (Ornithine decarboxylase antizyme) | DRSC07626 |
| -0.167 | -0.257 | Gbs-76A (Glycogen binding subunit 76A) | DRSC11081 |
| 0.342 | 0.53 | CG8785 | DRSC07266 |
| 0.0496 | -2.23 | AlkB | DRSC19115 |
| 3.19 | 0.793 | Remo (Remoulade) | DRSC19710 |
| 0.329 | 0.85 | CG31099 | DRSC14252 |
| -0.387 | 0.00709 | Ide (Insulin degrading metalloproteinase) | DRSC11867 |
| -0.491 | -1.72 | CG17977 | DRSC06700 |
| -1.61 | 1.33 | Osi22 (Osiris 22) | DRSC16442 |
| -1.09 | -1.5 | numb | DRSC03584 |
| -0.6 | -1.26 | Alg9 (ALG9, alpha-1,2-mannosyltransferase) | DRSC14407 |
| 2.42 | -0.606 | Ir20a (Ionotropic receptor 20a) | DRSC20506 |
| 1.35 | 0.0311 | jp (junctophilin) | DRSC02213 |
| 2.95 | 0.366 | jp (junctophilin) | DRSC02744 |
| 0.537 | 0.695 | Acbp6 (Acyl-CoA binding protein 6) | DRSC10217 |
| 0.0747 | 0.114 | CG31782 (retired record) | DRSC01554 |
| -0.293 | 1.28 | CG31782 (retired record) | DRSC01556 |
| -0.9 | -0.0391 | CG31516 | DRSC11994 |
| -0.11 | 0.239 | rl (rolled) | DRSC07833 |
| 0.118 | -1.71 | rl (rolled) | DRSC20742 |
| 0.695 | -0.727 | rl (rolled) | DRSC21814 |
| 0.186 | 0.506 | CG3081 | DRSC18571 |
| -0.546 | -0.314 | OtopLb (Otopetrin-like b) | DRSC00594 |
| 0.774 | -4.08 | Vha13 (Vacuolar H[+] ATPase 13kD subunit) | DRSC16895 |
| -1.76 | -0.263 | CG13297 | DRSC09971 |
| 0.557 | 2.06 | CG33287 | DRSC22929 |
| -0.0424 | 2.38 | eIF5B (eukaryotic translation initiation factor 5B) | DRSC08429 |
| 0.939 | 1.74 | eIF5B (eukaryotic translation initiation factor 5B) | DRSC08710 |
| 0.681 | 0.291 | CG12691 | DRSC17880 |
| -0.695 | -0.0138 | DAAM (Dishevelled Associated Activator of Morphogenesis) | DRSC18479 |
| -1.06 | 0.216 | mRpS21 (mitochondrial ribosomal protein S21) | DRSC12965 |
| -0.649 | -0.147 | mRpS21 (mitochondrial ribosomal protein S21) | DRSC21357 |
| -0.674 | -1.11 | Wdr81 (WD repeat domain 81) | DRSC02985 |
| -2.44 | -0.913 | fos28F (retired record) | DRSC03391 |
| 1.04 | -0.797 | HmgZ (HMG protein Z) | DRSC03888 |
| 4.94 | 0.526 | HmgZ (HMG protein Z) | DRSC04620 |
| 0.573 | 1.71 | CG8245 | DRSC04901 |
| -0.332 | 0.459 | CG14234 | DRSC19317 |
| 0.558 | 0.417 | CG14234 | DRSC19589 |
